Consider 19 molecules from publication PMC10163288.

B1: il10ra_site1_normal_mot_HHH_b1_05326_000000242_0001_1_20_H_._HHH_b2_08124_0001_0000100011_0000002_0 (protein)
chain: SSSSSSDEFLRLLRRIFRLLLRGNPEEAQELLEELEELAEELNDPAARRAVEILKEAASSSSSSS
B2: il10ra_site1_sap_18_mot_HHH_b1_06789_af2_000000041_0001_1_20_H_._HHH_b2_02765_0001_0000600018_0000001_0_0001_af2pred_dldesign_0_af2pred (protein)
chain: SSIEDVEKALAYNRFLASHAKTPEAEAALAEAEEALEKLKAGEITVEEAINKLAAIARKLGALIS
B3: il10ra_site1_sap_28_mot_HHH_b1_03478_af2_000000027_0001_1_18_H_._HHH_b2_07426_af2_0001_0000100001_0000001_0_0001 (protein)
chain: SSSSSDEHQELLELLLEAFRLALRGNPEEAKELLEEAHELARELGDERALRMVEDMLRALSSSSS
B4: il10ra_site1_normal_mot_HHH_b1_02997_000000220_0001_39_52_H_._HHH_b2_08164_af2_0001_0000300013_0000002_0_af2pred_dldesign_0_af2pred (protein)
chain: SSSSSSAAEKAVELLKKAAELLGEGKKEEAKKVLEEAEKLAKEAGNLNVLRNIEYLKSLLSSSSS
B5: il10ra_site1_normal_mot_HHH_b1_06837_000000150_0001_20_37_H_._HHH_b1_00819_0001_0000100006_0000003_0 (protein)
chain: SSSSDEERRRVYELLREASELLFEGNPEEAREVLKEAEELVEEANNELLRFVLEHLERIVNSSSS
B6: il10ra_site1_sap_19_mot_HHH_b1_05021_af2_000000167_0001_42_56_H_._HHH_b1_02196_0001_0000400015_0000002_0_0001 (protein)
chain: SSSSDAEEYLREVAVELLELFREGDPEKAEELLEEAREFLEEKGNRELVRMIEFQFRASEWSSSS
B7: il10ra_site1_sap_17_mot_HHH_b1_00929_000000068_0001_1_20_H_._HHH_b1_05876_0001_0000100001_0000002_0_0001 (protein)
chain: SSDESQEVYRLLREAVELIHEGDHEEAEKVLEEAEELVKELGDMVLERQIRYLQKILEEERKRSS
B8: il10ra_site1_normal_mot_HHH_b2_00984_000000042_0001_1_20_H_._HHH_b1_07305_0001_0000300025_0000001_0 (protein)
chain: SSSSSDEEELKELLEELEELVRRNDRERFLRLAQELVRLAIRLSDPEILQELWELIKKFASSSSS
B9: il10ra_site1_sap_19_mot_HHH_b1_05860_000000142_0001_1_19_H_._HHH_b1_04670_af2_0001_0000600070_0000001_0_0001_af2pred_0001 (protein)
chain: SDEEEAERILEKIKELAEEKNDEKVKIAVRFLEDLDRAAKELNDEESVKAITRAARALLELVERS
B10: il10ra_site1_sap_19_mot_HHH_b1_05357_000000034_0001_23_39_H_._HHH_b2_00301_0001_0000300008_0000001_0_0001_af2pred_0001 (protein)
chain: SSSSSSDDERAVRLLIRAARLASDPRLARAALRIAAQAAKASGNEELLEEAERLLEELRSSSSSS
B11: il10ra_site1_sap_16_mot_HHH_b2_06795_000000133_0001_42_56_H_._HHH_b1_00640_0001_0000600047_0000001_0_0001_af2pred_0001 (protein)
chain: SSSSSSEEEEEVRELLEEAKKIEDLEELSYVLTRAYALAYRLGDEELRELVEEVAIKLLGSSSSS
B12: il10ra_site1_normal_mot_HHH_b2_00033_000000036_0001_41_54_H_._HHH_b2_05176_af2_0002_0000600025_0000001_0 (protein)
chain: SSSSSEEEEELRRLEEKAEELIENGNPKEALEVLAEAVRLALKLGDEEVFQKIWELIKRLGSSSS
B13: il10ra_site1_sap_15_mot_HHH_b2_01447_af2_000000258_0001_1_20_H_._HHH_b1_00452_af2_0001_0000500025_0000001_0_0001 (protein)
chain: SSSSSDELFEEVKRAYEEARELYRNGNPEEARRLLEEILEKAEELGNWVVEFAIRHALRVLSSSS
B14: il10ra_site1_sap_26_mot_HHH_b1_02665_000000293_0001_1_18_H_._HHH_b1_05755_0001_0000600041_0000001_0_0001 (protein)
chain: SSSSTEITRRVYELAREVFELARNGNPEEAREVLEEAERLAEENNDFILRHSVEALKRLLSSSSS
B15: il10ra_site1_sap_28_mot_HHH_b1_02809_af2_000000277_0001_40_57_H_._HHH_b1_04687_af2_0001_0000400018_0000001_1_0001 (protein)
chain: SSSSDEELQEALRLSQEAFRLALRGNPEEARKVVEKAEELAEEANDERLLKQLEILLRALSSSSS
B16: il10ra_site1_normal_mot_HHH_b1_08578_af2_000000096_0001_1_20_H_._HHH_b1_07134_0001_0000100002_0000002_0_af2pred_dldesign_0_af2pred (protein)
chain: SSSSSELEEFLQRKIDGLRYLKELGDEEAFKKAYEYAKALAEKAKNEETLKALEELKKELESSSS
B17: il10ra_site1_normal_mot_HHH_b2_05813_000000266_0001_1_19_H_._HHH_b1_07748_0001_0000200010_0000002_0_af2pred_dldesign_0_af2pred (protein)
chain: SSSSDKEIWDLLVEIKKLIEANPELREELEAIAREVAELGRKKKLEEARKLLEQAKALVSKSSSS
B18: il10ra_site1_sap_25_mot_HHH_b1_05357_000000034_0001_23_39_H_._HHH_b2_07690_af2_0001_0000800032_0000001_0_0001 (protein)
chain: SSSSDELEEEAEELLEELRKITDPREFIEVAQEILQLVYRAQNPELLQELWRIVVEWARGSSSSS
B19: il10ra_site1_sap_9_mot_ems_3hM_3637_000000290_0001_1_19_H_._HHH_b1_05617_0001_0000100001_0000001_1_0001_af2pred_0001 (protein)
chain: SSSSSSDELEELIEKIEEALEEGDEELVLKLMVRLAHLANENNDEEATEFALRVAEELKSSSSSS

This is one part of the list.

The assay has as its target il10ra, Q13651. Kind of assay: yeast display titration.
As to B1, the “apparent Kd” value was “inactive: no binding seen”.
In the case of B2, the “apparent Kd” value was “inactive: no binding seen”.
In the case of B3, the “apparent Kd” value was “inactive: no binding seen”.
Take B4: the “apparent Kd” value was “inactive: no binding seen”.
Turning to B5, the “apparent Kd” value was “inactive: no binding seen”.
Turning to B6, the “apparent Kd” value is “inactive: no binding seen”.
As to B7, the “apparent Kd” value is “inactive: no binding seen”.
With B8, the “apparent Kd” value was “inactive: no binding seen”.
Turning to B9, the “apparent Kd” value was “inactive: no binding seen”.
The entry for B10 is “inactive: no binding seen”.
Regarding B11, the “apparent Kd” value is “inactive: no binding seen”.
Then B12, with “inactive: no binding seen”.
For B13, the “apparent Kd” value is “inactive: no binding seen”.
B14: the “apparent Kd” value was “inactive: no binding seen”.
With B15, the “apparent Kd” value is “inactive: no binding seen”.
Regarding B16, the “apparent Kd” value is “inactive: no binding seen”.
As for B17, the “apparent Kd” value is “inactive: no binding seen”.
With B18, the “apparent Kd” value was “inactive: no binding seen”.
In the case of B19, the “apparent Kd” value is “inactive: no binding seen”.
